Experimental data published in patent publication US7531623B2 (Theravance, Inc., priority 2003, dated 2009).

Assay: peptide synthesis
Conditions: hydrochloride

Substance | crude purity (method not given) (lipidation step, HPLC) | crude HPLC purity (late stage modification step, HPLC) [% purity] | final HPLC purity (purification step, HPLC) | step yield (purification step)
N^van-2-(n-Decylamino)ethyl Vancomycin Hydrochloride | ˜85% purity | – | – | –
telavancin | – | 76.5 | HPLC purity 91.3% | ˜40%
